The values that follow come from PubChem BioAssay AID330 (DTP/NCI, 2004).

The list does not hold the whole screen: it is rich in T/C values a quarter to a half above the control, in often repeated tests (any T/C) and in doses without a T/C. Further doses and runs are listed elsewhere. T/C gives the treated animals as a percentage of the vehicle group. Some entries give survivors of the animals treated and no T/C: the source holds a T/C of zero for them, seemingly a mark for toxic or unscored doses. Some survivor counts are full or nearly so, which does not show that the dose was tolerated: survival well below the control is almost never listed, so the zero probably covers shortened survival too. Survivors were counted at the toxicity check, usually on the fifth day, unless a day is given; later deaths do not show. Schedule codes are those of the source, taken here to give the interval after Q, in days (D) or hours (H), and the number of doses after X. Some doses were run more than once; the values are given in rising order. Where survival is the endpoint, the PubChem record calls one and a half times the control and up active, and a quarter to a half above the control has no call in these data; cut-offs in other NCI protocols can differ. Some T/C values carry the count of animals alive at the toxicity check (mostly the fifth day); without a count, all were alive then.

The assay deals with P388 leukemia ip, CD2F1 mice, survival T/C. Briefly: NCI In Vivo Anticancer Drug Screen. Data for tumor model P388 Leukemia (intraperitoneal) in CD2F1 (CDF1) mice. As to conditions: T/C endpoint: median survival time, higher T/C = longer survival.
Where [1] appears, read: dose: 240.0 mg/kg/injection, schedule: Q01DX005 (ip), vehicle: Klucel (hydroxypropylcellulose) (HPC).
The mark [2] stands for this setting: dose: 60.0 mg/kg/injection, schedule: Q01DX009 (ip), vehicle: saline + alcohol.
Where [3] appears, read: dose: 100.0 mg/kg/injection, schedule: Q01DX009 (ip), vehicle: saline.
Setting [4] is: dose: 200.0 mg/kg/injection, schedule: Q01DX009 (ip), vehicle: saline.
Where [5] appears, read: dose: 50.0 mg/kg/injection, schedule: Q01DX009 (ip), vehicle: Klucel (hydroxypropylcellulose) (HPC).
The mark [6] stands for this setting: dose: 240.0 mg/kg/injection, schedule: Q01DX005 (ip), vehicle: saline with Tween-80.
Where [7] appears, read: dose: 50.0 mg/kg/injection, schedule: Q01DX009 (ip), vehicle: saline.
The mark [8] stands for this setting: dose: 12.5 mg/kg/injection, schedule: Q01DX009 (ip), vehicle: saline with Tween-80.
Setting [9] is: dose: 100.0 mg/kg/injection, schedule: Q01DX009 (ip), vehicle: Klucel (hydroxypropylcellulose) (HPC).

`CC(C)CC(NC(c1ccccc1)(c1ccccc1)c1ccccc1)C(=O)O` (stereo not given): the survivor count under setting [1] was 2 of 6.

As to `CC(=O)C1=C(O)C2(O)C(=O)c3c(c(C)c4ccc(C)c(O)c4c3O)CC2C(N)C1=O` (stereo not given), the T/C was 130 and 134 % of control (dose: 15.0 mg/kg/injection, schedule: Q01DX009 (ip), vehicle: saline + alcohol); 132 and 140 % of control (dose: 30.0 mg/kg/injection, schedule: Q01DX009 (ip), vehicle: saline + alcohol); 142 and 149 % of control under setting [2]. For the same compound, the survivor count under setting [2] was 2 of 6; the survivor count (dose: 120.0 mg/kg/injection, schedule: Q01DX009 (ip), vehicle: saline + alcohol) is given as 2 of 6; the survivor count (dose: 200.0 mg/kg/injection, schedule: Q04DX003 (ip), vehicle: saline with Tween-80) was 3 of 6.

`COC(=O)/C=C(/Sc1nc(Cl)c(Cl)nc1N)C(=O)OC` (tested in a mixture with another compound): the survivor count is given as 2 of 6 (dose: 60.0 mg/kg/injection, schedule: Q01DX005 (ip), vehicle: Klucel (hydroxypropylcellulose) (HPC)); 0 of 6 (dose: 120.0 mg/kg/injection, schedule: Q01DX005 (ip), vehicle: Klucel (hydroxypropylcellulose) (HPC)); 0 of 6 under setting [1].

In the case of `c1ccc(Cc2cc[n+](Cc3ccccc3)cc2)cc1`, the survivor count under setting [3] is 2 of 6 and the survivor count under setting [4] is recorded as 0 of 6.

As for `Cc1c2oc3c(C)ccc(C(=O)NC4C(=O)NC(C(C)C)C(=O)N5CCCC5C(=O)N(C)CC(=O)N(C)C(C(C)C)C(=O)OC4C)c3nc-2c(C(=O)NC2C(=O)NC(C(C)C)C(=O)N3CC(O)CC3C(=O)N(C)CC(=O)N(C)C(C(C)C)C(=O)OC2C)c(N)c1=O` (stereo not given), for the setting “dose: 0.1 mg/kg/injection, schedule: Q01DX009 (ip), vehicle: water”, the T/C is 133 % of control. The survivor count by setting is: (dose: 0.4 mg/kg/injection, schedule: Q01DX009 (ip), vehicle: Klucel (hydroxypropylcellulose) (HPC)) 6 of 6; (dose: 0.8 mg/kg/injection, schedule: Q01DX009 (ip), vehicle: Klucel (hydroxypropylcellulose) (HPC)) 4 of 6; (dose: 0.8 mg/kg/injection, schedule: Q01DX009 (ip), vehicle: water) 6 of 6; (dose: 1.6 mg/kg/injection, schedule: Q01DX009 (ip), vehicle: Klucel (hydroxypropylcellulose) (HPC)) 0 of 6; (dose: 1.6 mg/kg/injection, schedule: Q01DX009 (ip), vehicle: water) 5 of 6.

As to `COc1cc(C[C@@H]2COC(=O)[C@]2(O)Cc2ccc(O)c(OC)c2)ccc1O`, the T/C is 130 % of control (dose: 1.0 mg/kg/injection, schedule: Q01DX009 (ip), vehicle: saline + alcohol); 141 % of control (dose: 2.0 mg/kg/injection, schedule: Q01DX009 (ip), vehicle: saline + alcohol); 137 % of control (dose: 4.0 mg/kg/injection, schedule: Q01DX009 (ip), vehicle: saline + alcohol); 146 % of control (dose: 10.0 mg/kg/injection, schedule: Q01DX009 (ip), vehicle: alcohol).

With `NCCCCCCN1CCN(c2cccc(Cl)c2)CC1`, the T/C under setting [4] was 138 % of control [5 of 6 alive].

For the compound `Cc1nc(C(=O)O)c(C(=O)O)[nH]1`, the survivor count (dose: 50.0 mg/kg/injection, schedule: Q01DX009 (ip), vehicle: saline sonified) is recorded as 6 of 6.

For `O=C(O)/C=N/NS(=O)(=O)c1ccc2ccccc2c1`, the T/C runs as follows: (dose: 12.5 mg/kg/injection, schedule: Q01DX009 (ip), vehicle: other) 135 and 136 % of control; (dose: 25.0 mg/kg/injection, schedule: Q01DX009 (ip), vehicle: other) 144 and 146 % of control. Also, the survivor count by setting is: (dose: 200.0 mg/kg/injection, schedule: Q01DX009 (ip), vehicle: other) 6 of 6; (dose: 400.0 mg/kg/injection, schedule: Q01DX009 (ip), vehicle: other) 0 of 6 and 4 of 6.

Take `CCOC(=O)NC(C#N)=C(Cl)Cl`: the survivor count under setting [5] is 4 of 6.

Regarding `CN1CCN(c2c(C(=O)Nc3ccc([N+](=O)[O-])cc3)cc([N+](=O)[O-])cc2[N+](=O)[O-])CC1`, under setting [6], the survivor count is recorded as 6 of 6.

With `CCNC(=O)N1CC(=O)Nc2ccccc21`, for the setting “dose: 200.0 mg/kg/injection, schedule: Q01DX005 (ip), vehicle: saline with Tween-80”, the survivor count was 4 of 6.

For the compound `CC(CNC(=O)CCBr)NC(=O)CCBr` (stereo not given), the survivor count under setting [7] is 3 of 6 and the survivor count (dose: 200.0 mg/kg/injection, schedule: Q01DX009 (ip), vehicle: suspension in saline) is given as 3 of 6. Further, the T/C (dose: 50.0 mg/kg/injection, schedule: Q01DX009 (ip), vehicle: suspension in saline) was 125 % of control; the T/C under setting [3] was 149 % of control [5 of 6 alive]; the T/C (dose: 100.0 mg/kg/injection, schedule: Q01DX009 (ip), vehicle: suspension in saline) was 140 % of control.

With `O=C1OCC=C1Sc1ccccc1`, the survivor count under setting [6] was 4 of 6.

In the case of `CCN(CC)[P+](C1=C(Cl)C(=O)C(C#N)=C(C#N)C1=O)(N(CC)CC)N(CC)CC`, the survivor count under setting [8] is 6 of 6.

For the compound `O=C(O)C(Cc1ccc(O)cc1)NS(=O)(=O)Cc1ccccc1` (stereo not given), under “dose: 400.0 mg/kg/injection, schedule: Q01DX009 (ip), vehicle: DMSO”, the survivor count is 6 of 6.

With `COc1cccc2c1C(=O)c1c(O)c3c(c(O)c1C2=O)CC(O)(C(=O)CO)CC3OC1CC(N/C(C)=C/C(C)=O)C(O)C(C)O1` (stereo not given), the T/C is 132 % of control (dose: 2.5 mg/kg/injection, schedule: Q04DX003 (ip), vehicle: saline with Tween-80); 149 % of control (dose: 5.0 mg/kg/injection, schedule: Q04DX003 (ip), vehicle: saline with Tween-80); 145 % of control (dose: 20.0 mg/kg/injection, schedule: Q04DX003 (ip), vehicle: saline with Tween-80).

In the case of `Nc1nc(=S)ss1`, the T/C under setting [9] is 125 % of control.

Take `COP(=O)(O)OC.[U]`: the survivor count reads like this: under setting [8], 5 of 6 and 6 of 6; (dose: 25.0 mg/kg/injection, schedule: Q01DX009 (ip), vehicle: saline with Tween-80) 5 of 6; (dose: 50.0 mg/kg/injection, schedule: Q01DX009 (ip), vehicle: saline with Tween-80) 3 of 6; (dose: 100.0 mg/kg/injection, schedule: Q01DX009 (ip), vehicle: saline with Tween-80) 1 of 6; (dose: 200.0 mg/kg/injection, schedule: Q01DX009 (ip), vehicle: saline with Tween-80) 0 of 6.

For the compound `O=C1N[C@H]2[C@H](CS[C@H]2CCCCC(=O)N(CCP(c2ccccc2)c2ccccc2)CCP(c2ccccc2)c2ccccc2)N1`, the T/C by setting is: under setting [5], 135 % of control; under setting [9], 127 % of control; (dose: 200.0 mg/kg/injection, schedule: Q01DX009 (ip), vehicle: Klucel (hydroxypropylcellulose) (HPC)) 135 % of control [4 of 6 alive].

In the case of `CN=C(N)N/N=C(\C)c1ccc2ccc3ccccc3c2c1`, the survivor count runs as follows: (dose: 100.0 mg/kg/injection, schedule: Q04DX002 (ip), vehicle: saline with Tween-80) 3 of 6; (dose: 200.0 mg/kg/injection, schedule: Q04DX002 (ip), vehicle: saline with Tween-80) 0 of 6.

Turning to `CC[CH2][Sn]([CH2]CC)([O]C(C)=O)[c]1ccccc1`, the survivor count is 2 of 6 (dose: 12.5 mg/kg/injection, schedule: Q01DX009 (ip), vehicle: saline); 0 of 6 (dose: 25.0 mg/kg/injection, schedule: Q01DX009 (ip), vehicle: saline); 0 of 6 under setting [7]; 1 of 6 under setting [3]; 0 of 6 under setting [4].

Take `O=C1c2ccccc2C(=O)c2c(NCCSCCO)ccc(NCCSCCO)c21`: the survivor count (dose: 256.0 mg/kg/injection, schedule: Q01DX009 (ip), vehicle: Klucel (hydroxypropylcellulose) (HPC)) is recorded as 8 of 8.

As to `CCOC(=O)c1c(N)c(=O)oc2c3c(c(O)cc12)OCO3`, the survivor count (dose: 200.0 mg/kg/injection, schedule: Q01DX005 (ip), vehicle: Klucel (hydroxypropylcellulose) (HPC)) is given as 6 of 6.
